# Assay results: PubChem BioAssay AID504467 (National Center for Advancing Translational Sciences (NCATS), 2011)
# Among all 330,000 compounds or so, about 7,700 (2.3%) were called active. The shares of active, inactive and inconclusive entries below differ from those in the screen. Calls come from the whole dose curve; as a rule, active = well fitted inhibition curve with a large enough effect; inconclusive = small, poorly fitted or top-dose-only effect, or effect the other way; inactive = flat fitted curve, though single readings scatter. A potency beside an inconclusive call is a rough fit, not a confirmed value.
# Assay: qHTS screen for small molecules that inhibit ELG1-dependent DNA repair in human embryonic kidney (HEK293T) cells expressing luciferase-tagged ELG1; note: nearly all actives have a fitted effect of over 55% in size
# Conditions: HEK293T ELG1-luciferase reporter, luminescence, 16 h, DNA damage induced by 5-fluorouridine; activity change, negative = inhibition: at 46.1 µM (top of the series)
# How it was run: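 Cells (2,000 per well) received 5-fluorouridine plus test compound or DMSO and were incubated 16 hr at 37 °C, 5% CO2. Luciferase activity was read by luminescence 30 min after ONE-Glo addition; signal suppression marked inhibition of damage-induced ELG1 function.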
# % is set by controls: 0 for no effect and ±100 for the full control effect; potency is the fitted concentration of half-maximal effect.
Compound,Potency,"activity change, negative = inhibition"
COc1cc(OC)cc(C(=O)N[C@H](C(=O)Nc2nc(-c3ccc(OC)c(OC)c3)cs2)C(C)C)c1,active: 20.6 µM,–
O=C(CN(CC1CCCO1)C(=O)CNS(=O)(=O)c1ccc(F)cc1)NC1CCCCC1 (stereo not drawn),–,inactive: -1.61%
Cc1ccc(OCc2ccc(C(=O)NN)o2)cc1C,"inconclusive: 2.91 µM [activator, partial curve]",–
O=C(CSc1nnc(-c2ccncc2)n1-c1ccc(Cl)cc1)N1CCOCC1,–,inactive: -1.95%
COC(=O)c1sc(NC(=S)NC(=O)c2cccc(Br)c2)nc1C,"inconclusive: 18.3 µM [activator, single point]",–
COC(=O)Nc1nnc(/C=C/c2ccc(OC)cc2)s1,"inconclusive: 9.2 µM [activator, partial curve]",–
CCN1CCCC1CNC(=O)C(=O)Nc1ccccc1 (stereo not drawn),"inconclusive: 11.6 µM [activator, partial curve]",–
COc1ccc(-n2c(COc3cccc4ccccc34)nnc2SCC(=O)NCc2ccco2)cc1,"inconclusive: 29.1 µM [inhibitor, single point]",–
Cc1ccc(Sc2ccc(C(=O)N3CCOCC3)cc2[N+](=O)[O-])cc1,"inconclusive: 23.1 µM [inhibitor, partial curve, poor fit]",–
CC(=O)c1ccc(NC(=O)CN(c2c(C)cccc2C)S(C)(=O)=O)cc1,"inconclusive: 11.2 µM [activator, partial curve, poor fit]",–
O=C(O)C/C(=C\c1cc2c(cc1Br)OCO2)c1nc2ccccc2s1,"inconclusive: 25.9 µM [activator, partial curve, poor fit]",–
COc1cccc(NC(=O)C(=O)NCc2ccncc2)c1,"inconclusive: 20.6 µM [activator, partial curve]",–
COC(=O)Cc1[nH]nc2c1C(c1c[nH]c3ccccc13)C(C#N)=C(N)O2 (stereo not drawn),"inconclusive: 29.1 µM [activator, single point]",–
CCCCn1nc2cc(C(=O)NCc3ccc(OC(F)(F)F)cc3)ccc2c1OC,"inconclusive: 23.1 µM [inhibitor, single point]",–
COc1ccc(-c2cn3ccsc3n2)cc1,"inconclusive: 8.2 µM [activator, partial curve, poor fit]",–
O=C(C[n+]1ccc(-c2ccccc2)cc1)Nc1ccc([N+](=O)[O-])cc1,–,inactive: -15.2%
Cc1ccc(NC(=O)c2c(NC(=O)CCC(=O)O)sc3c2CCCCC3)cc1,"inconclusive: 18.3 µM [activator, single point]",–
Cc1ccc(S(=O)(=O)N2CCCCC2)cc1NC(=O)COC(=O)Cc1cccc2ccccc12,–,inactive: -16%
CSc1nnc(C)c(=O)n1COC(=O)/C=C/c1ccccc1,–,inactive: -2.52%
CC(NC(=O)NC(=O)c1ccc(Cl)cc1)c1ccccc1 (stereo not drawn),–,inactive: -3.39%
Cc1ccc2cc(CN(c3ccccc3)S(=O)(=O)c3ccccc3)c(=O)[nH]c2c1,–,inactive: 11.6%
CC(CNC(=O)CCc1nnc(CCC2CCCCC2)o1)c1ccccc1 (stereo not drawn),"inconclusive: 16.4 µM [activator, single point]",–
COc1ccc(C2c3cc(OC)c(OC)cc3CCN2C2CC(=O)N(c3ccccc3)C2=O)cc1OC (stereo not drawn),"inconclusive: 13 µM [inhibitor, partial curve]",–

# Grouped by structure: those above containing an aryl thioether with sulfur outside any ring (four)
Compound,Potency,"activity change, negative = inhibition"
O=C(CSc1nnc(-c2ccncc2)n1-c1ccc(Cl)cc1)N1CCOCC1,–,inactive: -1.95%
COc1ccc(-n2c(COc3cccc4ccccc34)nnc2SCC(=O)NCc2ccco2)cc1,"inconclusive: 29.1 µM [inhibitor, single point]",–
Cc1ccc(Sc2ccc(C(=O)N3CCOCC3)cc2[N+](=O)[O-])cc1,"inconclusive: 23.1 µM [inhibitor, partial curve, poor fit]",–
CSc1nnc(C)c(=O)n1COC(=O)/C=C/c1ccccc1,–,inactive: -2.52%

# An excerpt from above in order of heavy-atom count, largest number first.
Compound,Potency,"activity change, negative = inhibition"
COc1ccc(C2c3cc(OC)c(OC)cc3CCN2C2CC(=O)N(c3ccccc3)C2=O)cc1OC (stereo not drawn),"inconclusive: 13 µM [inhibitor, partial curve]",–
Cc1ccc(S(=O)(=O)N2CCCCC2)cc1NC(=O)COC(=O)Cc1cccc2ccccc12,–,inactive: -16%
Cc1ccc(Sc2ccc(C(=O)N3CCOCC3)cc2[N+](=O)[O-])cc1,"inconclusive: 23.1 µM [inhibitor, partial curve, poor fit]",–

# More entries.

Compound,Potency,"activity change, negative = inhibition"
Cc1cc(C)nc(/N=C(\N)Nc2cccc([N+](=O)[O-])c2)n1,"inconclusive: 10.3 µM [inhibitor, partial curve, poor fit]",–
Cc1ccc(NC(=O)C(=O)NCCN2CCN(S(=O)(=O)c3ccccc3)CC2)cc1C,"inconclusive: 29.1 µM [inhibitor, single point]",–
CN1C(=O)/C(=C\C(=O)c2cccs2)c2ccccc21,"inconclusive: 18.3 µM [activator, partial curve, poor fit]",–
C=CCN(Cc1ccc(OC)c(OC)c1)C(=O)c1cc2cc(F)ccc2[nH]1,–,inactive: -22.2%
COc1ccc(NC(=O)C(Cc2ccccc2)n2cccc2)cc1OC (stereo not drawn),–,inactive: 0.467%
Cn1cccc1C(=O)OCC(=O)NCCCc1ccccc1,"inconclusive: 8.2 µM [activator, single point]",–
Cc1ccc(OCc2n[nH]c(=S)n2Cc2ccccc2)cc1,–,inactive: 1.89%
Cc1cc(C)c(C)c(S(=O)(=O)N2CCN(C(=O)CNC(=O)c3ccco3)CC2)c1C,"inconclusive: 29.1 µM [inhibitor, single point]",–
CCCCN(C(=O)C1CC(=O)N(Cc2ccc(C)cc2)C1)c1c(N)n(CCCC)c(=O)[nH]c1=O (stereo not drawn),–,inactive: -2.98%
CCC(C)c1ccc(NC(=O)COC(=O)c2nc3nccc(C)n3n2)cc1 (stereo not drawn),"inconclusive: 23.1 µM [activator, partial curve, poor fit]",–
ClC(Cl)c1nnc(-c2ccccc2)c(-c2c[nH]c3ccccc23)n1,–,inactive: -13.3%
CCOC(=O)c1cn[nH]c1NC(=S)Nc1ccc(OC)cc1,"inconclusive: 0.259 µM [activator, full curve]",–
COc1cc(/C=N/n2nnnc2Nc2ccccc2)cc(OC)c1OC,active: 23.1 µM,–
CCOC(=O)Cc1csc(NC(=O)COc2cccc(C)c2)n1,–,inactive: -5.62%
CC(CN(C)Cc1ccccc1)OC(=O)c1ccc2c(c1)OCCO2 (stereo not drawn),"inconclusive: 29.1 µM [activator, single point]",–
CC(C)CNC(=O)c1cccc(NC(=O)C(C)Oc2ccccc2)c1 (stereo not drawn),"inconclusive: 25.9 µM [inhibitor, partial curve, poor fit]",–
CCc1nc2ccccc2c(C(=O)OCC(=O)C(C)(C)C)c1C,"inconclusive: 32.6 µM [inhibitor, partial curve, poor fit]",–
Cc1ccc(Cn2nnnc2CN2CCC(O)(c3ccccc3F)CC2)cc1,"inconclusive: 32.6 µM [inhibitor, single point]",–
COc1ccc2cc(C(N)=O)/c(=N/NC(=O)c3ccco3)oc2c1,"inconclusive: 13 µM [inhibitor, partial curve, poor fit]",–
Cc1ccc(N2CC(C(=O)N(C)CC(=O)Nc3ccc(Cl)c(C(F)(F)F)c3)CC2=O)cc1 (stereo not drawn),"inconclusive: 16.4 µM [inhibitor, partial curve]",–
CCCNC(=O)c1ccccc1NC(=O)c1ccccc1N(C)S(=O)(=O)c1ccccc1,"inconclusive: 23.1 µM [inhibitor, partial curve, poor fit]",–
O=C(Nc1cccc(Cl)c1N1CCOCC1)c1ccc([N+](=O)[O-])o1,–,inactive: 12.6%
CCn1c(=O)cc(OCC(=O)N2CCN(C(=O)c3ccco3)CC2)c2ccccc21,"inconclusive: 12.6 µM [activator, single point]",–

Compound,Potency,"activity change, negative = inhibition"
CCN(CC)c1ccc(/C=N/NC(=O)c2ccco2)cc1,"inconclusive: 4.61 µM [activator, partial curve]",–
CCOc1cccc2cc(C(=O)Oc3ccc(OC)cc3)c(=O)oc12,–,inactive: -3.51%
CN(C)c1cc[n+](/C(C(=S)Nc2ccc(SC(F)F)cc2)=C(/[O-])c2ccccc2)cc1,–,inactive: -24%
C/C(=N\NC(=O)c1cc(C)nc2ccccc12)c1ccc([N+](=O)[O-])cc1,"inconclusive: 20.6 µM [inhibitor, partial curve, poor fit]",–
COc1ccc(-c2c3c(nc4sc5c(=O)[nH]c(C)nc5c24)CCC3)cc1,–,inactive: -28.5%
Cc1c(Cc2ccccc2)c(=O)oc2c(C)c(OCC(=O)Nc3ccc(C#N)cc3)ccc12,–,inactive: 8.81%
C/C(CC(=O)NCc1ccco1)=N\NC(=O)COc1ccc(Cl)cc1Cl,–,inactive: 7.42%
O=C(CNC(=O)c1cccs1)NCCc1ccco1,"inconclusive: 9.2 µM [activator, partial curve, poor fit]",–
COc1cccc(-n2c(SC)nnc2-c2c[nH]c3ccccc23)c1,"inconclusive: 23.1 µM [inhibitor, partial curve]",–
COc1ccc(NC(=O)CSc2ccccn2)c([N+](=O)[O-])c1,"inconclusive: 29.1 µM [activator, single point]",–
Cc1nn(Cc2c(Cl)cccc2Cl)c(Cl)c1/C=C/C(=O)OCC(=O)NCC(F)(F)F,–,inactive: -0.16%
CCOC(=O)c1c(C)[nH]c(C(=O)CSc2nccc(C)n2)c1C,"inconclusive: 6.51 µM [activator, partial curve]",–
CCc1nn(CC(=O)NCCCN2CCN(C)CC2)c(=O)c2cc3sc(C)cc3n12,"inconclusive: 13 µM [activator, partial curve, poor fit]",–
c1ccc(C2C/C(=N\N3CCOCC3)c3ccccc3O2)cc1 (stereo not drawn),"inconclusive: 18.4 µM [activator, single point]",–
Cc1ccc(C)c(NC(=O)c2ccc3c(=O)n4c(nc3c2)CCC4)c1,"inconclusive: 8.2 µM [activator, partial curve]",–
NC(=O)COc1ccc2oc(=O)cc(-c3cc4ccccc4o3)c2c1,"inconclusive: 32.6 µM [inhibitor, single point]",–
O=C(COc1ccccc1Cl)N1CCc2ccccc2C1,"inconclusive: 29.1 µM [activator, single point]",–
Cc1ccc(C(=O)NCC(c2cccs2)N(C)C)cc1S(=O)(=O)N1CCOCC1 (stereo not drawn),"inconclusive: 14.6 µM [activator, partial curve, poor fit]",–
COc1ccccc1CN1C[C@@H]2C[C@@H](C3=Cc4cc(Cl)ccc4OC3)N3CCC[C@@]23C1=O,–,inactive: -15.7%
CCc1nc(SCC(=O)Nc2nc3c(s2)CCCC3)c2ccccc2n1,"inconclusive: 7.31 µM [inhibitor, partial curve]",–
Fc1ccc(N2CCN(Cc3cnc(N4CCOCC4)s3)CC2)cc1,"inconclusive: 23.1 µM [inhibitor, single point]",–
CC(=O)/C=C/n1c(=S)oc2ccccc21,"inconclusive: 29.1 µM [inhibitor, single point]",–
